Results are given in words; binding and its absence hold for the method and conditions named. In cells and extracts the contact can be indirect. These calls come from enrichment with a bait or labelling near it, and not all partners need be listed.

Sequences of proteins named here, by UniProt entry; tags and fusion partners are left off. A change or cut given only in a name is not applied to a line headed by its entry.
UniProt A8LHT0: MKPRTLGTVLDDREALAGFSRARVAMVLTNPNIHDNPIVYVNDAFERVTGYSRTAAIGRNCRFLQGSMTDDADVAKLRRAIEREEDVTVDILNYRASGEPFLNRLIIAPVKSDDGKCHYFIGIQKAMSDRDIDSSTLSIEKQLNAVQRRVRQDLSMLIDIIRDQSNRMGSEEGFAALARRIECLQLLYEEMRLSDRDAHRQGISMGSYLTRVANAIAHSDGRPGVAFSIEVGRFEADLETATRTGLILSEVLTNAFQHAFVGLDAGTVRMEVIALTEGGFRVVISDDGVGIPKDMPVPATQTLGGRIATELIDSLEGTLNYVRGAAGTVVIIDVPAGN
UniProt A8LM40: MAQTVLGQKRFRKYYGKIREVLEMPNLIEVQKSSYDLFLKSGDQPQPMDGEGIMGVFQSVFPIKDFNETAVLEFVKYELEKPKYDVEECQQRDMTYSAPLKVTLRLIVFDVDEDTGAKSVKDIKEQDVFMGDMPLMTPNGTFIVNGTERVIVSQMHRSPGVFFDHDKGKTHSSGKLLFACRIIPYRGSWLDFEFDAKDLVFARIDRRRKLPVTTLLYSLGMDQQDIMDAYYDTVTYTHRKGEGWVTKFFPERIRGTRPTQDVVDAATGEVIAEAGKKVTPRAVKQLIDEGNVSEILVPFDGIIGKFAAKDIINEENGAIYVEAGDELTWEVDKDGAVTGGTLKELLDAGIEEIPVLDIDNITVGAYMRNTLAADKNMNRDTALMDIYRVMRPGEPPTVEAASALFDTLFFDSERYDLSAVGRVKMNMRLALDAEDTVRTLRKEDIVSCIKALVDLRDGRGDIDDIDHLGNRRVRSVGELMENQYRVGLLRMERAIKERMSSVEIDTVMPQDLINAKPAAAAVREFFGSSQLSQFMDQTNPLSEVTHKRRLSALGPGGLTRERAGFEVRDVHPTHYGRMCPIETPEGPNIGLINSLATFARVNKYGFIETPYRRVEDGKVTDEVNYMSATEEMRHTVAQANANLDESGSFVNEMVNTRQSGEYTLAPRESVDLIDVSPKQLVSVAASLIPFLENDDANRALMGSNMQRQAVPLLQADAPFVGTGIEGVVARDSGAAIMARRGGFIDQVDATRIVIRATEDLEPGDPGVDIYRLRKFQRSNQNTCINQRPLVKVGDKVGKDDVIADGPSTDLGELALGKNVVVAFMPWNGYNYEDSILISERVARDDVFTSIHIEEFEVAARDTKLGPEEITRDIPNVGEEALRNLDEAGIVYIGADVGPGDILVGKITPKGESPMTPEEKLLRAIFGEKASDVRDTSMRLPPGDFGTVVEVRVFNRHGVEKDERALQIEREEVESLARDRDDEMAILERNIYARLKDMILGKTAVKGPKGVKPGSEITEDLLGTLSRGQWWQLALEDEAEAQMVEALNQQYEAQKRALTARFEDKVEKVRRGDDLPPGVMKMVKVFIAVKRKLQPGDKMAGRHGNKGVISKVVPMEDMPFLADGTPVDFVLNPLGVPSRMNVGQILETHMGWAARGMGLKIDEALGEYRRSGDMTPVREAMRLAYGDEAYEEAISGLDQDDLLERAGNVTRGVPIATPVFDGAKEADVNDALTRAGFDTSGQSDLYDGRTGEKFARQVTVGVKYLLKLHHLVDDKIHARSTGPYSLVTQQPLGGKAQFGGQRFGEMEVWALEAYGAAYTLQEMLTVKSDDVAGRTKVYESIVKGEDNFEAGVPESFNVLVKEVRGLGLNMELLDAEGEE
UniProt A8LM41: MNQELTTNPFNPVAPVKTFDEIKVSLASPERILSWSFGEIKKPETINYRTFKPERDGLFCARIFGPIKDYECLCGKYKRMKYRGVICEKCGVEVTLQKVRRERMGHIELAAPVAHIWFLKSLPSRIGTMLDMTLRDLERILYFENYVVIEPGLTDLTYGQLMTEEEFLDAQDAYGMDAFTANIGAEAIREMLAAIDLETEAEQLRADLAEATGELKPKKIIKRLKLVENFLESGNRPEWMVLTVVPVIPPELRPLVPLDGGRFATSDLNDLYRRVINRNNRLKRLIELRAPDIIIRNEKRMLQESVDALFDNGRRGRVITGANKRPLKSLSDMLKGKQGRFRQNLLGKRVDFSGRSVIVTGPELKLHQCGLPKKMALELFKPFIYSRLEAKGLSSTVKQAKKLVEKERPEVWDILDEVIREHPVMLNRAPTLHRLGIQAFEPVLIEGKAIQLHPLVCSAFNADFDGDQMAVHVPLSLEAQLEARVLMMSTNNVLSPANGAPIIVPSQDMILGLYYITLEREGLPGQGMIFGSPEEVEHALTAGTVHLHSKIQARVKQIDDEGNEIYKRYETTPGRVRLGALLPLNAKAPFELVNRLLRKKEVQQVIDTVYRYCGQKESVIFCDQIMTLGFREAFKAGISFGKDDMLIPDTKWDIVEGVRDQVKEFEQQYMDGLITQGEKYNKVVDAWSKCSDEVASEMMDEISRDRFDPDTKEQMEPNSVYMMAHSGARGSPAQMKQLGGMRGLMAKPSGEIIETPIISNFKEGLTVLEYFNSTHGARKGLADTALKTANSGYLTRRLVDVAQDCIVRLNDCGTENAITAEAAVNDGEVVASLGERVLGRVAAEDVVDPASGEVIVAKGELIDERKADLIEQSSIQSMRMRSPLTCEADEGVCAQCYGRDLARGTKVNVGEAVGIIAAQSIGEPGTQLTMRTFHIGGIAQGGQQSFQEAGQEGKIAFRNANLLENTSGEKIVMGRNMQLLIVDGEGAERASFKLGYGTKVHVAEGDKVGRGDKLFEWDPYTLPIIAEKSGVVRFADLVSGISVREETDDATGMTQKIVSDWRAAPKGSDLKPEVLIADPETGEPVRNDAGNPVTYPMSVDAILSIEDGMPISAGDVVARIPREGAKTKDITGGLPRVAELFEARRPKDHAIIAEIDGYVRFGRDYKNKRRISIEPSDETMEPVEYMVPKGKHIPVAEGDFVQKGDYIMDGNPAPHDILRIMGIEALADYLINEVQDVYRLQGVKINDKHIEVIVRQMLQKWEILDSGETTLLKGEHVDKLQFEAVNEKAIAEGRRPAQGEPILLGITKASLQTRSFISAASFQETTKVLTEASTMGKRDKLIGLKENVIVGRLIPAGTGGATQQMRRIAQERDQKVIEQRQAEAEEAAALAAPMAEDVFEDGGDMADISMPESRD
UniProt A8LR74: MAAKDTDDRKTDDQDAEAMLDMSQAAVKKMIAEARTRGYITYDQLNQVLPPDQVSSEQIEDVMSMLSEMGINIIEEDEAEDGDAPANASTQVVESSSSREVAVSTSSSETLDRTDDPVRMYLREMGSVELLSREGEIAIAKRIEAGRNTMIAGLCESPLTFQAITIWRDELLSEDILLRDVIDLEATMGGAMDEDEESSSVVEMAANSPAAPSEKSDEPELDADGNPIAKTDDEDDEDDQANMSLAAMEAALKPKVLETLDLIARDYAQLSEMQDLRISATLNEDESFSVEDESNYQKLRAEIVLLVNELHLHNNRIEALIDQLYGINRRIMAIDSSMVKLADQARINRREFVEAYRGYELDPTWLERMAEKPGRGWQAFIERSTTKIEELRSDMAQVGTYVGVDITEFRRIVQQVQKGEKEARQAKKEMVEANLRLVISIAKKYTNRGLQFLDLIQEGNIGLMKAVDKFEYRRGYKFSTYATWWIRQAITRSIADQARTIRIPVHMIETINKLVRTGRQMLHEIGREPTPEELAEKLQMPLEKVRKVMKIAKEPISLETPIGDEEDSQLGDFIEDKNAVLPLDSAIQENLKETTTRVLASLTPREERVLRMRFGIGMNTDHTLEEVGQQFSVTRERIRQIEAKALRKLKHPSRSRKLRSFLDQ

Binding data for three substances are collected here from paper PMC10890935.

For the experiment, the target named is Dshi_1135-Strep fusion protein (Dinoroseobacter shibae) (UniProt A8LHT0). Kind of experiment: affinity purification with mass spectrometry; D. shibae DS266 grown in the dark, under blue light (467 nm) or white light; in vivo cross-linking with 0.125% formaldehyde; Dshi_1135-Strep bait on a Strep-Tactin column; elution fractions by nanoLC-MS/MS, compared with the proteome of the cell extract.
For the substance “RpoB, RNA polymerase subunit beta (from UniProt A8LM40 1-1378)”, the binding entry is “binds”.

In the case of “RpoC, RNA polymerase subunit beta' (from UniProt A8LM41 1-1415)”, the binding result is “binds”. In the case of “RpoD, RNA polymerase sigma factor (from UniProt A8LR74 1-664)” it was “binds”.
